Assay results from patent US20030099990A1.
Results are given in words; binding and its absence hold for the method and conditions named. Some binding calls cover weakened binding; strength is not graded here.

Chains of the proteins cited; added tags and fusions are not shown. Residues count along the entry.
UniProt Q9Y275, residues 134-285: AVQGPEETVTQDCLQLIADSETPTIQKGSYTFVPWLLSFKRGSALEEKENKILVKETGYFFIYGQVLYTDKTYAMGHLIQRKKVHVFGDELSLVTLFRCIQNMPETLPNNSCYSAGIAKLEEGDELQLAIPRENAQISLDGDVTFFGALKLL

Assays:
[1] = molecular target: T1, human TALL-1R polypeptide encoded by clone 706, on transfected 293 cells (human); experiment: FACS on transfected 293 cells, 1 µg/ml FLAG-TALL-1 with or without 10 µg/ml TACI-Fc, FITC anti-FLAG M2
T1 sequence: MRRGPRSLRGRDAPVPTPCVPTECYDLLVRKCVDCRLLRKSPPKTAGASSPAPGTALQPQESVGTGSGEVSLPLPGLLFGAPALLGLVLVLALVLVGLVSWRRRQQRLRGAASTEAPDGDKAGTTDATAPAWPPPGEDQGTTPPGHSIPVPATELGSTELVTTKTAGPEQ

[2] = molecular target: T2, human TALL-1R polypeptide encoded by clone 711, on transfected 293 cells (human); experiment: as above
T2 sequence: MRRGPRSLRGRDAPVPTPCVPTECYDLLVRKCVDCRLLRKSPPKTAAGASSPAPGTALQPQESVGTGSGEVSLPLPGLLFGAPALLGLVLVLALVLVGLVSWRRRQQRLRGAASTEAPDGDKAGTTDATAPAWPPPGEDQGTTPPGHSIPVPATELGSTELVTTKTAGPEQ

[3] = molecular target: T1, human TALL-1R polypeptide encoded by clone 706, on transfected 293 cells (human); experiment: europium-labeled TALL-1 binding to 293 cells transfected with single clones (clone 706, named in paragraph 372)
[4] = molecular target: T3, human TALL-1R polypeptide encoded by clone 713, on transfected 293 cells (human); experiment: europium-labeled TALL-1 binding to 293 cells transfected with single clones (clone 713, named in paragraph 372)
T3 sequence: T2 sequence

[5] = molecular target: T4, human TALL-1R polypeptide encoded by clone 710, on transfected 293 cells (human); experiment: europium-labeled TALL-1 binding to 293 cells transfected with single clones (clone 710, named in paragraph 372)
T4 sequence: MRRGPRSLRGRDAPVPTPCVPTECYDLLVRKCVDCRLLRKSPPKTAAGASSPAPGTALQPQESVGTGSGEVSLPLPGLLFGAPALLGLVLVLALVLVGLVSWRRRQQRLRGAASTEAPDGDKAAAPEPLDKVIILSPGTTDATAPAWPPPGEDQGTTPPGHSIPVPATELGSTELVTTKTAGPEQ

[6] = molecular target: T2, human TALL-1R polypeptide encoded by clone 711, on transfected 293 cells (human); experiment: europium-labeled TALL-1 binding to 293 cells transfected with single clones (clone 711, named in paragraph 372)

binding [1]	binding [2]	binding [3]	binding [4]	binding [5]	binding [6]	Substance
binds	binds					FLAG-TALL-1 (from UniProt Q9Y275 134-285) (ligand)
		binds	binds	binds	binds	europium-labeled TALL-1 protein (from UniProt Q9Y275 134-285) (ligand)
